# Assay results: PubChem BioAssay AID1347426 (Functional Genomics Laboratory (NCATS/FGL), 2020)
# Out of some 31,000 sequences screened, about 1,400 (4.5%) were called active.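 The calls were made as follows: active = median seed-adjusted z-score above 1 or below -1; inactive = the rest.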 The list shows a part of the results.
# Assay: Novel Modifiers of Survival Motor Neuron (SMN) Protein: Gene Identification via Genome-wide siRNA Screen;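 also: luminescence tracks full-length SMN protein made from the SMN2 reporter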
# Details: HEK293T SMN2-luciferase reporter, siRNA knockdown, 72 h; actives lie on both sides
# Procedure, shortened: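 HEK293T cells stably carrying an SMN2 promoter/splicing cassette–luciferase reporter were reverse-transfected with 1 pmol siRNA per well (druggable-genome library, 3 siRNAs per gene) and grown 72 h at 37 °C. Luminescence, normalized to negative-control siRNA and log10-transformed, was scored as MAD.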
row,Sequence,median seed-adjusted z-score
1,GACUAUUCCCUGCACCACATT against ABHD9,inactive: 0.486
2,GCUUCCCGGUUCAUCAUUATT against SOAT1,inactive: 0.409
3,GAGAGACCAUAUACUCAUATT against ZNF559,inactive: -0.0208
4,GAAAAGGGAUAACUACGAATT against HIVEP3,inactive: 0.516
5,CCGGUUGAGUGGGAGAGAATT against ASMTL,inactive: -0.0375
6,CAUUCGCUGUGGAGAGGAATT against TPST1,inactive: -0.00547
7,CCUCAAUACUCCGCAAAUATT against NMNAT2,active: -1.58
8,CCCACAAACUUUGUGCAUATT against CDC42SE2,inactive: 0.381
9,GCUUGUUAAGAAAGAGUUUTT against GZMA,inactive: -0.234
10,GGAUUUGACCUGUACUUCATT against ANTXR1,inactive: -0.0849
11,AGGCGAUCCUGUCUCCAAATT against RPUSD1,inactive: 0.327
12,GGUUAUUCGCUCUAUAGGATT against FLJ12529,inactive: 0.852
13,GUCUAUGUCAAGUUCCGGATT against U2AF1L4,inactive: 0
14,GGACCAUAACUCUUACGUATT against RBM26,inactive: -0.967
15,GGAUGAGGUCUUCACCAAATT against NENF,inactive: -0.778
16,CGGCCUUCUCGAUUCCUUUTT against SAFB2,inactive: 0.0394
17,CUGGAUGAGGUGUACCUUATT against XPNPEP1,active: -1.5
18,GAAAUACAAGGAAUCUGAATT against TMTC4,active: -1.16
19,GCUGUACACCCUCAACAAATT against MTG1,inactive: -0.19
20,CGAAUCUCAUGUUCAGGAATT against LPA,inactive: -0.321
21,GGUGGUGCUUUAUACUGGATT against AS3MT,inactive: -0.74
22,CCACGUUUUGAUCAACAAUTT against RDH11,inactive: -0.241

# Random excerpt: 3 records from the list, in no set order.
row,Sequence,median seed-adjusted z-score
20,CGAAUCUCAUGUUCAGGAATT against LPA,inactive: -0.321
14,GGACCAUAACUCUUACGUATT against RBM26,inactive: -0.967
3,GAGAGACCAUAUACUCAUATT against ZNF559,inactive: -0.0208

# Later entries

row,Sequence,median seed-adjusted z-score
1,ACAUGUGGGUGACGGUUUUTT against SRM,inactive: 0
2,CGCUAUCGCUACAUCAUGATT against TRPM6,inactive: -0.0375
3,GAGUGGGCGUGGAUAGAAATT against PSMC2,active: -1.96
4,GGAGGUGACAAGCCGCAUATT against NOS3,inactive: 0.212
5,AGACCAUCGCCUACGGUUATT against SARDH,inactive: -0.195
6,AGUGCAAAAACGUGCUGAATT against AURKAIP1,inactive: 0.067
7,GCCGAAUUCCGGAUCUACATT against BMP7,inactive: -0.893
8,ACAUGGAGCUGUACCGACUTT against NTN3,inactive: 0.298
9,GGUUCAUACAGACUCUUAUTT against PJA2,inactive: 0
10,GGAUUUGCUCUCUAUAGAATT against RHBDL2,inactive: 0.0701
11,GGCCUUACCAAUCAUCAUUTT against SLC28A2,inactive: -0.076
12,CACUGACACUUACAAUGAATT against UGT3A1,inactive: 0.864
13,GCACCUUAUGAGUGGAAGATT against GGH,inactive: -0.105
14,UAAUUCAGAUCAAAGGUAATT against ZNF600,inactive: 0.252
15,CACAGAUUCUGUUACAACUTT against SERPINA11,inactive: -0.0879
16,GCUCAGAUAUUGCUGUUGATT against FMO2,inactive: -0.265
17,GUUCCAUUAUCAAACCCGATT against UBE3B,inactive: 0.0972
18,GCCUAUGAUUUAGGACUAATT against MNDA,inactive: 0.232
19,CCAAGGUUCAAGAUUAAUATT against SNW1,inactive: 0.148
20,AGAGUUUGGACAAAAAGAATT against SLC25A25,inactive: -0.668
21,AGACCAACCUCACAUAUGATT against TRIM62,inactive: -0.000231
22,GGAGAUCUGAAAUCAGGGATT against TP53BP1,inactive: -0.166

row,Sequence,median seed-adjusted z-score
1,GGACCCAAAUUCAGAAGAATT against ANKRA2,active: 1.26
2,AAUAUUUGCUGUUCGUCAATT against MOCS2,inactive: 0.0327
3,UCAAGCAUGUGGUCCUGUATT against AIP,inactive: 0.529
4,CCUCAGUGGUGGUAGAUGUTT against APEH,inactive: -0.0726
5,CGAUGUUGGUUAUGAGAGATT against ACTR3,inactive: -0.7
6,CGAUACACCCUGGAAAUUATT against ALOX15,inactive: 0.0369
7,CCGUAGGAGAUGUUCGUCATT against NEK1,inactive: 0.296
8,GGAGAAGCUUAUUUUCUCATT against GDPD5,inactive: -0.0618
9,GGCUGGUUCCUUUAGUGAATT against MTHFD1L,inactive: -0.0577
10,GGUAUGCGACGGGAAAGUATT against FASN,inactive: 0.282
11,UGCCGUUAAUUAAGGAAAATT against DTYMK,inactive: -0.191
12,AGACCCUGGUAGUAGCUGATT against ADAMTS7,inactive: 0.146
13,CAGCAUACUUUAUCGCCUUTT against DICER1,inactive: 0.101
14,CCCUUUAGCUAACUAAUAATT against PTPN20A,inactive: 0
15,GGCCUUCAUUCUUUUCGUATT against ZNF587,inactive: -0.178
16,GAAUCUGUCAGGAAUGACATT against RARB,inactive: 0.409
17,GGUCAUGGAUGUGCACGAUTT against KRT14,inactive: -0.127
18,GGAUAUGCUUUCAAUGGGATT against TSHR,inactive: 0.851
19,GGAAAUUGCUAGAGUAGAATT against NDC80,inactive: 0.0855
20,AAAUAGUGAUAGAUCCAUUTT against HPRT1,inactive: -0.0463
21,AGAUCAUGACUUGUGCUGATT against SEZ6L2,inactive: -0.331
22,GGUUAUAGAGUCUAUCAUUTT against CDS1,inactive: 0.0208

row,Sequence,median seed-adjusted z-score
1,GGCAGACAGAAUUCGCAUATT against GUCY2F,inactive: 0.188
2,GGAUCUAAACAGGAAGGAATT against NES,inactive: 0.613
3,GAUUCAACUUAUCAGUAUATT against INPP1,inactive: -0.047
4,GCUAAGGUGUGGAUGGACATT against SEMA5B,inactive: 0.641
5,GCGGAUUGUUCGGAACAAATT against PLCL1,inactive: 0.000254
6,CCGCUAGAAUUACAAUACATT against MSH3,inactive: 0.428
7,CGUUUACCAUGCUAUCUAUTT against TFCP2,inactive: 0.14
8,GGACCUACAAGAUCAACUATT against TRAF3IP3,inactive: 0.0238
9,AAGAGUUCAUAGACAGUGATT against SCGB2A1,inactive: 0
10,GAGCCGAAGUUGUACAGAATT against PPARGC1B,inactive: -0.366
11,CACCGGAGCUUUCAAAGAATT against LTA,inactive: 0.273
12,UCAUCAUCGUAUCAAUUGUTT against VAMP7,inactive: -0.00527
13,GCAUCUAAUUUGUAUGAAUTT against DCK,inactive: 0.123
14,CAGUCGAGUUGGAACGAUATT against CMYA5,inactive: -0.858
15,UCAGUAUCUUGGUCCUGUATT against CALCB,inactive: 0
16,UGUCCUUCGUUUAUCCCAATT against B4GALNT4,inactive: -0.567
17,GCCGGCUGAUGAUCCCUAATT against UNC5A,inactive: 0.517
18,CCAUGUUCCUUACACCUCUTT against GPR15,inactive: 0.101
19,GAACCAGAUGAGACAUUCATT against SPSB1,inactive: -0.378
20,GGAGAUGCCUGGUUGAUGATT against IL10RA,inactive: 0.156
21,GGAAAGCAGGGAUACCAGUTT against PRKCE,inactive: 0.568
22,GGAACCCAGAGGAAUGUGATT against HTR3E,inactive: -0.717

row,Sequence,median seed-adjusted z-score
1,AGAAGACUAUCGGACCCAATT against DLGAP2,inactive: 0.295
2,GCAGGACAAACAACGAGUATT against ACADSB,inactive: -0.436
3,GUAGACAACGGAAAUAUUUTT against RFESD,inactive: -0.503
4,GGGCUGAGUUAAAGGAGAATT against PTGDS,inactive: 0.48
5,CGAGUACGGCCCAGACUUATT against LTBP4,inactive: 0.19
6,GGUUAUUGAGAAUACUGGATT against DDR2,inactive: 0.252
7,GGAUGCCUUUUGUUCGAAATT against TFIP11,inactive: -0.0562
8,GGAAUGUCAGAAUUACCAATT against GTF2I,inactive: 0.379
9,GGUCCUAAAGGAUGAGAAATT against WFIKKN2,inactive: -0.353
10,GGAACUACAAGAACCACAATT against FEZF2,inactive: 0.203
11,GUGUAACCAUCAAAUCGGATT against NCOA1,inactive: 0.537
12,GGCUGAUAGCUGGAUGAUATT against MID1,inactive: -0.294
13,GACCAAUUCUAGAUACCAATT against PPP2R1B,inactive: -0.295
14,CCAUAGUAGUGACUACCAUTT against GRIA3,inactive: -0.358
15,GGAAGGUUCCAUGAAGCGATT against WNT3A,inactive: -0.66
16,CAAACUCAAGGGUCUCAAATT against ZKSCAN4,inactive: 0.0558
17,CUGCUGUCUUUAUAUCGGATT against NVL,inactive: 0.701
18,CUACAUAAUCUUCUAGAUATT against ARL8B,inactive: -0.477
19,GGUUCUCUCUGGACCGUCATT against PARD6G,inactive: 0

# For reference, some entries already given.
row,Sequence,median seed-adjusted z-score
19,GAACCAGAUGAGACAUUCATT against SPSB1,inactive: -0.378
20,GGAGAUGCCUGGUUGAUGATT against IL10RA,inactive: 0.156
21,GGAAAGCAGGGAUACCAGUTT against PRKCE,inactive: 0.568
22,GGAACCCAGAGGAAUGUGATT against HTR3E,inactive: -0.717
